Assay results: PMC10897178, “FANCJ DNA helicase is recruited to the replisome by AND-1 to ensure genome stability” (EMBO Reports, 2024)
Numbering of substitutions follows the chain as printed. These are yes or no findings as the source states them, for the method shown. Binding seen in cells or lysates may run through a third protein. Some binding calls cover weakened binding; strength is not graded here. For some assays here: Where a sequence is shown, tags or fusion partners need not be part of it.

Assays:
[1] = target: T1, endogenous CDC45 (human (endogenous in HEK 293T)) (UniProt O75419); assay: co-IP; anti-CDC45 rabbit IgG on Protein A Sepharose beads; nuclear fraction of HEK 293T cells transfected with Flag-FANCJ and released in S phase after thymidine block, sonicated and nuclease-treated; FANCJ normalised to pulled-down CDC45
T1 sequence: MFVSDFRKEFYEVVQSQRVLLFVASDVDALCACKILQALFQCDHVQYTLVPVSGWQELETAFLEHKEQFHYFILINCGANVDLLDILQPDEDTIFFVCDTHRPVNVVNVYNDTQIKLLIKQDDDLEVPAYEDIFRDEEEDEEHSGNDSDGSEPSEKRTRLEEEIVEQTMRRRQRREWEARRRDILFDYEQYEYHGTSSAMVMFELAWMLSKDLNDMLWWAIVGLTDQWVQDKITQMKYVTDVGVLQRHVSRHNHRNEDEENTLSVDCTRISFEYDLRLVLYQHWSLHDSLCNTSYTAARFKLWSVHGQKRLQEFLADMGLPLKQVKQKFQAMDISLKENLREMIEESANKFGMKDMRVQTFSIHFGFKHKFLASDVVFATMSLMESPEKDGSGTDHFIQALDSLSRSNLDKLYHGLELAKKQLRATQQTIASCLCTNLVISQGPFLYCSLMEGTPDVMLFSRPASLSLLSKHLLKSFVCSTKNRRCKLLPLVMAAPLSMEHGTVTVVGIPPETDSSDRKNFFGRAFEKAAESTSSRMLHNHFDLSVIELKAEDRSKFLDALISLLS

[2] = target: T2, Flag-tagged FANCJ wild type (human, UniProt Q9BX63 1-1249); assay: co-IP; anti-Flag M2 agarose beads; whole extracts of HEK 293T cells transfected with Flag-FANCJ, sonicated and Benzonase-treated; 150 mM NaCl, 0.25% Triton X-100, 4 °C; AND-1 band normalised to pulled-down FANCJ, WT = 100%
T2 construct: FANCJ (BRIP1, BACH1) DNA helicase, human, open reading frame; purified as full-length protein; Plasmid from Hisao Masai (Uno et al, 2012); also called FANCJ WT; Flag-FANCJ WT; source: HEK 293T, transiently transfected (pCSII-EF-MCS): in whole-cell extract or nuclear fraction; also purified (anti-Flag M2 agarose, 3x Flag-peptide elution)
T2 sequence (looked up): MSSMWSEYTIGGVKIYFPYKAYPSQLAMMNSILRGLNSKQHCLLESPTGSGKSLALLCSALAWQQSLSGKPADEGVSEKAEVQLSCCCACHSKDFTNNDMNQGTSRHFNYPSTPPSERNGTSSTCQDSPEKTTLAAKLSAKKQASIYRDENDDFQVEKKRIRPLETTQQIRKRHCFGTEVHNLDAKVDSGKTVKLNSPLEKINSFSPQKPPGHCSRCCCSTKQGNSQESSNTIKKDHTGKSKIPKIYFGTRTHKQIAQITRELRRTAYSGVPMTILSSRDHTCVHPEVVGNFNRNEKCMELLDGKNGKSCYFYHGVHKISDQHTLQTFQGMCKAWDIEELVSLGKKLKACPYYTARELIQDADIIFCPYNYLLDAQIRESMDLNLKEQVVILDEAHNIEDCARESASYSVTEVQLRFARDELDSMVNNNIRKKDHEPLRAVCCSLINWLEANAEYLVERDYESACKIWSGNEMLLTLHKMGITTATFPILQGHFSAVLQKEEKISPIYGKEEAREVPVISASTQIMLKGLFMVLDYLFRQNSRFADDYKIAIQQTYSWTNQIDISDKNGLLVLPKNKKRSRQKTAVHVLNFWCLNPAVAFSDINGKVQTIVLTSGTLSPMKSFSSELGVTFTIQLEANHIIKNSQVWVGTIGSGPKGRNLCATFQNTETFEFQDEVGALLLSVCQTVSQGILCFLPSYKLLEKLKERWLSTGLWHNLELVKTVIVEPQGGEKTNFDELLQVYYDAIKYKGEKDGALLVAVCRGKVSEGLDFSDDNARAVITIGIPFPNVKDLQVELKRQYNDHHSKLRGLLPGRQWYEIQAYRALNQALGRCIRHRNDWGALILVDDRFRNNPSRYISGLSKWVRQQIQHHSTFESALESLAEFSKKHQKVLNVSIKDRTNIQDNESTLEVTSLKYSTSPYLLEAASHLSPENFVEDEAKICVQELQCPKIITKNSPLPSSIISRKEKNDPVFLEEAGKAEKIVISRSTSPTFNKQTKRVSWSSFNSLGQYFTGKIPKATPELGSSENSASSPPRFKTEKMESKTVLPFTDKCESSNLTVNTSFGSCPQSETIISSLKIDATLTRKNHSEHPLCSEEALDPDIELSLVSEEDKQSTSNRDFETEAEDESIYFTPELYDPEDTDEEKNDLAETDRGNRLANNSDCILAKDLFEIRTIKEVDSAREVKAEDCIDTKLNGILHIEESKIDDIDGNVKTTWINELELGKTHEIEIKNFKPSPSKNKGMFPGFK

[3] = target: T3, Flag-tagged FANCJ wild type (in HeLa FJ-KO cells) (human) (UniProt Q9BX63); assay: co-IP; anti-Flag agarose beads; whole extracts of HeLa FJ-KO cells transiently transfected with Flag-FANCJ WT or mutants; Western blot
T3 sequence: T2 sequence (looked up)

[4] = target: T4, Flag-tagged FANCJ D736H (in HeLa FJ-KO cells) (human) (UniProt Q9BX63); assay: as above
T4 sequence: T2 sequence (looked up) with D736H

[5] = target: T5, Flag-tagged FANCJ N734H (in HeLa FJ-KO cells) (human) (UniProt Q9BX63); assay: as above
T5 sequence: T2 sequence (looked up) with N734H

B1: endogenous AND-1 (HEK 293T) (protein, UniProt O75717 1-1129)
chain: MPATRKPMRYGHTEGHTEVCFDDSGSFIVTCGSDGDVRIWEDLDDDDPKFINVGEKAYSCALKSGKLVTAVSNNTIQVHTFPEGVPDGILTRFTTNANHVVFNGDGTKIAAGSSDFLVKIVDVMDSSQQKTFRGHDAPVLSLSFDPKDIFLASASCDGSVRVWQISDQTCAISWPLLQKCNDVINAKSICRLAWQPKSGKLLAIPVEKSVKLYRRESWSHQFDLSDNFISQTLNIVTWSPCGQYLAAGSINGLIIVWNVETKDCMERVKHEKGYAICGLAWHPTCGRISYTDAEGNLGLLENVCDPSGKTSSSKVSSRVEKDYNDLFDGDDMSNAGDFLNDNAVEIPSFSKGIINDDEDDEDLMMASGRPRQRSHILEDDENSVDISMLKTGSSLLKEEEEDGQEGSIHNLPLVTSQRPFYDGPMPTPRQKPFQSGSTPLHLTHRFMVWNSIGIIRCYNDEQDNAIDVEFHDTSIHHATHLSNTLNYTIADLSHEAILLACESTDELASKLHCLHFSSWDSSKEWIIDLPQNEDIEAICLGQGWAAAATSALLLRLFTIGGVQKEVFSLAGPVVSMAGHGEQLFIVYHRGTGFDGDQCLGVQLLELGKKKKQILHGDPLPLTRKSYLAWIGFSAEGTPCYVDSEGIVRMLNRGLGNTWTPICNTREHCKGKSDHYWVVGIHENPQQLRCIPCKGSRFPPTLPRPAVAILSFKLPYCQIATEKGQMEEQFWRSVIFHNHLDYLAKNGYEYEESTKNQATKEQQELLMKMLALSCKLEREFRCVELADLMTQNAVNLAIKYASRSRKLILAQKLSELAVEKAAELTATQVEEEEEEEDFRKKLNAGYSNTATEWSQPRFRNQVEEDAEDSGEADDEEKPEIHKPGQNSFSKSTNSSDVSAKSGAVTFSSQGRVNPFKVSASSKEPAMSMNSARSTNILDNMGKSSKKSTALSRTTNNEKSPIIKPLIPKPKPKQASAASYFQKRNSQTNKTEEVKEENLKNVLSETPAICPPQNTENQRPKTGFQMWLEENRSNILSDNPDFSDEADIIKEGMIRFRVLSTEERKVWANKAKGETASEGTEAKKRKRVVDESDETENQEEKAKENLNLSKKQKPLDFSTNQKLSAFAFKQE
- binding [1]: binds
- binding [2]: binds

B2: endogenous AND-1 (HeLa FJ-KO) (protein, UniProt O75717 1-1129)
chain: B1 chain
- binding [3]: binds
- binding [4]: binds
- binding [5]: binds
